Reference: PMC8213057, “Targeting ALK2: An Open Science Approach to Developing Therapeutics for the Treatment of Diffuse Intrinsic Pontine Glioma” (Journal of Medicinal Chemistry, 2020)

By UniProt entry, the sequences of proteins in these tests, tags left out. Where a name states a change or a piece, a line headed by the entry shows the natural chain unless it says otherwise. Residues count along the entry.
UniProt Q13555: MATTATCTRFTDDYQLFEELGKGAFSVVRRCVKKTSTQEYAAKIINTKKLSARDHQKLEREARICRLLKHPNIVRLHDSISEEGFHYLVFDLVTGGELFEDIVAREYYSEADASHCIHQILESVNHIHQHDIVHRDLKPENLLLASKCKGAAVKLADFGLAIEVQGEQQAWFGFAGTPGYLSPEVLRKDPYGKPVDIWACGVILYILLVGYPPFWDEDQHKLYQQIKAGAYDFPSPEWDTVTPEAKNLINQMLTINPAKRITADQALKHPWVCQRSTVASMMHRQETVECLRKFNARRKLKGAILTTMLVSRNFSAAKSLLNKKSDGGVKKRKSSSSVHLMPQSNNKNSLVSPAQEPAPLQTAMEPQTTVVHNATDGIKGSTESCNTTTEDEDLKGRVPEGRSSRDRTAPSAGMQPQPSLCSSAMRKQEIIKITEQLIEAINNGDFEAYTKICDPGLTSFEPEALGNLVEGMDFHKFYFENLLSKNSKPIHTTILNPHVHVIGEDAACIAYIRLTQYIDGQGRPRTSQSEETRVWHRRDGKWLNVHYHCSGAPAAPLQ
UniProt P53779: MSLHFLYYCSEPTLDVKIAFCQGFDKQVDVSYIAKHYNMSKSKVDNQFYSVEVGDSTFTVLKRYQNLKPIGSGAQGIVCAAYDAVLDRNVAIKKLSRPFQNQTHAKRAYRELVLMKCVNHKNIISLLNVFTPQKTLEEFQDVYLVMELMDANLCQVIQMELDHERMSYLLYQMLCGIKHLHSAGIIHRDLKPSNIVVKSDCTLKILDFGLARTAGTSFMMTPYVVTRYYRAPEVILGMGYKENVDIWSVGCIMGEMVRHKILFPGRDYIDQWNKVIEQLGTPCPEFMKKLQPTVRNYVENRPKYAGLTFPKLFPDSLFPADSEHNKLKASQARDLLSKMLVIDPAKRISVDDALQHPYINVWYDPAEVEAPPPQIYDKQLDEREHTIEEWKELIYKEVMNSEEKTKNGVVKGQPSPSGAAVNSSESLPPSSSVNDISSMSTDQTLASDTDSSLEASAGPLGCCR
UniProt Q13043: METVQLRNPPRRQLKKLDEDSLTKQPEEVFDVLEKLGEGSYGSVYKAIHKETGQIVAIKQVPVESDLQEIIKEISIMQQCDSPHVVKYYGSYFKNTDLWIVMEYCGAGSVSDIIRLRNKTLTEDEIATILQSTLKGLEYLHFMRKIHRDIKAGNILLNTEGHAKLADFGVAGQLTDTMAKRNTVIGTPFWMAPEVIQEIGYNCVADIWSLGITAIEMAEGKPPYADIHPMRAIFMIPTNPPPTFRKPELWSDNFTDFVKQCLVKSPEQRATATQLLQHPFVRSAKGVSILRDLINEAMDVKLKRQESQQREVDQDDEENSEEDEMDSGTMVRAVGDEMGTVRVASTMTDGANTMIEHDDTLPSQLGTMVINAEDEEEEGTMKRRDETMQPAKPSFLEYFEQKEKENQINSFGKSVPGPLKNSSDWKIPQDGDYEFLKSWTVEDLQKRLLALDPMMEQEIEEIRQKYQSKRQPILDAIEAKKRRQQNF
UniProt P51617, whole entry: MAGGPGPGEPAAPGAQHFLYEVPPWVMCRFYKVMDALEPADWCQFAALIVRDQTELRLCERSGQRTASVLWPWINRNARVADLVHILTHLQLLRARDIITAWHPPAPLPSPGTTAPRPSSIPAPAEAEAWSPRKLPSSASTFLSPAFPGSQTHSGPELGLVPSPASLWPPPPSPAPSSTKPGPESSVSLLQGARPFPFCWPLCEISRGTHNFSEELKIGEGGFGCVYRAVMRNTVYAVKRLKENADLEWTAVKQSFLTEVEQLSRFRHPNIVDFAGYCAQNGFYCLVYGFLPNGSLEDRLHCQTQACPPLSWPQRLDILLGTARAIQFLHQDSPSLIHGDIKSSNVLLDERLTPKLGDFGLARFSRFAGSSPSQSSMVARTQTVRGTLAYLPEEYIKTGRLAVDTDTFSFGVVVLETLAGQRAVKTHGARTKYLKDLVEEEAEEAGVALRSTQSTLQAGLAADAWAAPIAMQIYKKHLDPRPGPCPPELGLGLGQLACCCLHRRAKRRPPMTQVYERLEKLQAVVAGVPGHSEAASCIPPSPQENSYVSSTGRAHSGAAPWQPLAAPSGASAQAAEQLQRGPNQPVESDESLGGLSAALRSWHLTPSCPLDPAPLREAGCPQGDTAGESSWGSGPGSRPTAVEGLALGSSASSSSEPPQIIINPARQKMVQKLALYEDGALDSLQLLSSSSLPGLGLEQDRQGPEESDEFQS
UniProt P16234, 24-1089: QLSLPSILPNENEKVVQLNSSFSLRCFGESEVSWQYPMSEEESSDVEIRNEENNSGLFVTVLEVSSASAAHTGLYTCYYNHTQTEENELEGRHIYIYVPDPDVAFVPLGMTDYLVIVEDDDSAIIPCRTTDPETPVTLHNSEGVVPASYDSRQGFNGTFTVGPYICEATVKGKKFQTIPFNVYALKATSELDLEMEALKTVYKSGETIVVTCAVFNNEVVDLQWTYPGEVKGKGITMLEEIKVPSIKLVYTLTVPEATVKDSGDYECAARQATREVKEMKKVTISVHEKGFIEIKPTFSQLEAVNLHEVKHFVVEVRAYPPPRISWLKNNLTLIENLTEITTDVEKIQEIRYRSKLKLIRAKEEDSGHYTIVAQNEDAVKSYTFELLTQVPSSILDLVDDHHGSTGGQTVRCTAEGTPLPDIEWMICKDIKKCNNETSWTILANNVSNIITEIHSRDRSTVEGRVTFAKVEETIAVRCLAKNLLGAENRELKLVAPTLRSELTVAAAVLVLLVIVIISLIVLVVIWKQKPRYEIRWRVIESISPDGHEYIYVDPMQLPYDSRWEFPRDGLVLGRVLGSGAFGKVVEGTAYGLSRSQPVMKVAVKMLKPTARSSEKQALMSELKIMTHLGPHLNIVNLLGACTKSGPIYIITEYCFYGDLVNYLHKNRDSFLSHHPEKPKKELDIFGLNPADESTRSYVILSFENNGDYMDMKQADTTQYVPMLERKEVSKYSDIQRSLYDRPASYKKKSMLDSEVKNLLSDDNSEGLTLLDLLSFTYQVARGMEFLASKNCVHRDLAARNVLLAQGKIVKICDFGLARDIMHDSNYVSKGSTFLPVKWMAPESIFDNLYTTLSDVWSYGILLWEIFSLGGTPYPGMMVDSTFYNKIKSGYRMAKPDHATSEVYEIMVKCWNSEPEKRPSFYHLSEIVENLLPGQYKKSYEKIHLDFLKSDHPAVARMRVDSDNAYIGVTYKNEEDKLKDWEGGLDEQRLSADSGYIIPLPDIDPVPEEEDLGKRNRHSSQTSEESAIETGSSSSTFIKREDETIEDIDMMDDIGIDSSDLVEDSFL
UniProt Q86YV6: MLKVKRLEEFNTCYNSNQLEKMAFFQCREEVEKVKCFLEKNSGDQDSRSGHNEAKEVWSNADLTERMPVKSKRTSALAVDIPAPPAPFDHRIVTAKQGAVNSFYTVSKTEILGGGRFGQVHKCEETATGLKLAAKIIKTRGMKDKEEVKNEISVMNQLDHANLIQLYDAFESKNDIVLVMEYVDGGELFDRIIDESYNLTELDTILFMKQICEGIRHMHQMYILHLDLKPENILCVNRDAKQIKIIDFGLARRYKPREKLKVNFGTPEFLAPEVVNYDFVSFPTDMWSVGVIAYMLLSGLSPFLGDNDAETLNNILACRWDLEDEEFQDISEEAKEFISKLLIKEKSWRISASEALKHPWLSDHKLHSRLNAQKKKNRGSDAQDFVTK
UniProt P50613: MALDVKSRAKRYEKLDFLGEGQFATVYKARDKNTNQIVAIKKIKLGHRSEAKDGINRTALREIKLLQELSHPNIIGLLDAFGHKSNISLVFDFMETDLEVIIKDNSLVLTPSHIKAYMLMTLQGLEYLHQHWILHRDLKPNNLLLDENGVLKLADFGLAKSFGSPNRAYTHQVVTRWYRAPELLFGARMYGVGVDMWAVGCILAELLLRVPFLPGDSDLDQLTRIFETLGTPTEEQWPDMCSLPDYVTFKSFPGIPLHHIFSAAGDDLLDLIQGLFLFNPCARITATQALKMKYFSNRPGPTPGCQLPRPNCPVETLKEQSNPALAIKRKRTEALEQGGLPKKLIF
UniProt Q12851: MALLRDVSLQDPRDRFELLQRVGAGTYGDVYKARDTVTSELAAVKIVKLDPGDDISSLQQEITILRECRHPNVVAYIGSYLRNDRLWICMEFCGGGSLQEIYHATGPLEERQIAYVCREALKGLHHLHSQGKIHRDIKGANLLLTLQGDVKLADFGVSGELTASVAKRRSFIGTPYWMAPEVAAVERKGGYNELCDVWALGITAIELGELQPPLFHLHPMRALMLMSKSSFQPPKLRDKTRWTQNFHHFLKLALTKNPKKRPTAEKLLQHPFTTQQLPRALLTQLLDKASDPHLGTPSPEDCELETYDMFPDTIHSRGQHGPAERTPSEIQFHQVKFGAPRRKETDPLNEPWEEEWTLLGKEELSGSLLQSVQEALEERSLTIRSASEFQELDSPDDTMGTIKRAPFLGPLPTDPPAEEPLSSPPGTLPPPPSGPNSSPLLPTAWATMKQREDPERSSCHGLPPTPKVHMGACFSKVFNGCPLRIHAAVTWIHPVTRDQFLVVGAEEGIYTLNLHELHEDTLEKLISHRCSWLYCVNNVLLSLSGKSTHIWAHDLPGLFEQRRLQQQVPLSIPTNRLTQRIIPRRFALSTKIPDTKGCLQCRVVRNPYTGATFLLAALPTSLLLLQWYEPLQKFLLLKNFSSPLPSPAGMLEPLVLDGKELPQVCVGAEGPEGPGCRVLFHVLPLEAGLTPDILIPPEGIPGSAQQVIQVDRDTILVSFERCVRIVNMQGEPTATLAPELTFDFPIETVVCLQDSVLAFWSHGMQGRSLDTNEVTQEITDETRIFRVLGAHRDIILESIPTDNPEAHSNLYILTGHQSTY
UniProt Q8NEV4: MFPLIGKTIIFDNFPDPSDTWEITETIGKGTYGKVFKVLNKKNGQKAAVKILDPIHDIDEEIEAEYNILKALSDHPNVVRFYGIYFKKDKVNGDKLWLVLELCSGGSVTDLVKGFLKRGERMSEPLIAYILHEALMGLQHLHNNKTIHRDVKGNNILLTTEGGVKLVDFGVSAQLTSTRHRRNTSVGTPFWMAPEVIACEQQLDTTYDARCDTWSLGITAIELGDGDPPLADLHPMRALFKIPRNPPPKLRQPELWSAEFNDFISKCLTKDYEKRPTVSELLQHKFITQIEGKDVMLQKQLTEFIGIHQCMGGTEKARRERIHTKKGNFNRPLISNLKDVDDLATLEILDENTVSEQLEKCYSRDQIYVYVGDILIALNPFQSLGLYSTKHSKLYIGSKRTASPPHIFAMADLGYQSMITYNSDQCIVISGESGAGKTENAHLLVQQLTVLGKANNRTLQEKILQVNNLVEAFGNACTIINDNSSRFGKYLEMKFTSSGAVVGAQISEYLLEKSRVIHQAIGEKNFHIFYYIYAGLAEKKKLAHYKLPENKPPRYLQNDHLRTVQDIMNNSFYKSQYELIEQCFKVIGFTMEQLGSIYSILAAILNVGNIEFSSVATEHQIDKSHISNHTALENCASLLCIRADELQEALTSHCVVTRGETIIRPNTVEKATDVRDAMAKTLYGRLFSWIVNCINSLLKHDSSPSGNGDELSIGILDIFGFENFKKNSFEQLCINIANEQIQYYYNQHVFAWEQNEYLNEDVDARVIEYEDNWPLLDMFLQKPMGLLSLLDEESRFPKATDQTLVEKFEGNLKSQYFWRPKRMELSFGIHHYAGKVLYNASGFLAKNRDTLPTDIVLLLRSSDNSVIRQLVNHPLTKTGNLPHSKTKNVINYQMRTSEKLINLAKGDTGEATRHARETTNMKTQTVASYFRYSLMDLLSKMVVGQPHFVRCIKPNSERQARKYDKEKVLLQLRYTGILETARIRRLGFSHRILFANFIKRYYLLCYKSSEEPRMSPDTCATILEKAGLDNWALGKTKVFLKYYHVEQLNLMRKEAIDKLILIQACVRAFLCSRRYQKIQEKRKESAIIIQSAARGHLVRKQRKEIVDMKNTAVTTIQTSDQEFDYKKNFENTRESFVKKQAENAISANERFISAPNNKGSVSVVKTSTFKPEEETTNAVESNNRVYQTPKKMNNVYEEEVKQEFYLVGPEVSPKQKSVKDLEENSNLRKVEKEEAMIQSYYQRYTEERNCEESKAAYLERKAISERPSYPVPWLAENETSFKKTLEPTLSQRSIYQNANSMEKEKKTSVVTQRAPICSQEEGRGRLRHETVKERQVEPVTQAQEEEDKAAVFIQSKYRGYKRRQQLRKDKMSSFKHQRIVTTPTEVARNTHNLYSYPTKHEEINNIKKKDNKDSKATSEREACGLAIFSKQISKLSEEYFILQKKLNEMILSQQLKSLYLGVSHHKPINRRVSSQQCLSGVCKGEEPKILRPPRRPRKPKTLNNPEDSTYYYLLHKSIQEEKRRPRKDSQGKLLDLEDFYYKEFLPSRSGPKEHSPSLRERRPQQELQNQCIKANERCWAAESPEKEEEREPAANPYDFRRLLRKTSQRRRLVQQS

What was measured:
PKG1a = PKG1a (Homo sapiens, UniProt Q13976); details: 1 μM; Run 1, Run 2
JNK1 = JNK1 (Homo sapiens, UniProt P45983); details: 1 μM; Run 1, Run 2
ARK5/NUAK1 = ARK5/NUAK1 (Homo sapiens, UniProt O60285); details: 1 μM; Run 1, Run 2
NEK5 [1] = biological target: T1, NEK5 (Homo sapiens, UniProt Q6P3R8); details: 1 μM; Run 1, Run 2
SLK/STK2 = SLK/STK2 (Homo sapiens, UniProt Q9H2G2); assay: biochemical; details: read-out: % enzyme activity, 1 μM; Run 1, Run 2
MST3/STK24 = MST3/STK24 (Homo sapiens, UniProt Q9Y6E0); assay: biochemical; details: read-out: % enzyme activity, 1 μM; Run 1, Run 2
CAMK2g = CAMK2g (Homo sapiens, UniProt Q13555); details: 1 μM; Run 1, Run 2
MEKK2 = MEKK2 (Homo sapiens, UniProt Q9Y2U5); details: 1 μM; Run 1, Run 2
CDK2/cyclin E = CDK2/cyclin E (Homo sapiens, UniProt P24941); assay: biochemical; details: read-out: % enzyme activity, 1 μM; Run 1, Run 2
PHKg1 = PHKg1 (Homo sapiens, UniProt Q16816); details: 1 μM; Run 1, Run 2
CDK14/cyclin Y (PFTK1) = CDK14/cyclin Y (PFTK1) (Homo sapiens, UniProt O94921); assay: biochemical; details: read-out: % enzyme activity, 1 μM; Run 1, Run 2
MASTL = MASTL (Homo sapiens, UniProt Q96GX5); assay: biochemical; details: read-out: % enzyme activity, 1 μM; Run 1, Run 2
SRMS = SRMS (Homo sapiens, UniProt Q9H3Y6); details: 1 μM; Run 1, Run 2
PKCd = PKCd (Homo sapiens, UniProt Q05655); assay: biochemical; details: read-out: % enzyme activity, 1 μM; Run 1, Run 2
PKD2/PRKD2 = PKD2/PRKD2 (Homo sapiens, UniProt Q9BZL6); details: 1 μM; Run 1, Run 2
AKT2 = AKT2 (Homo sapiens, UniProt P31751); assay: biochemical; details: read-out: % enzyme activity, 1 μM; Run 1, Run 2
CDK3/cyclin E = CDK3/cyclin E (Homo sapiens, UniProt Q00526); assay: biochemical; details: read-out: % enzyme activity, 1 μM; Run 1, Run 2
RSK3 = RSK3 (Homo sapiens, UniProt Q15349); assay: biochemical; details: read-out: % enzyme activity, 1 μM; Run 1, Run 2
CDK19/cyclin C = CDK19/cyclin C (Homo sapiens, UniProt Q9BWU1); assay: biochemical; details: read-out: % enzyme activity, 1 μM; Run 1, Run 2
JNK3 = JNK3 (Homo sapiens, UniProt P53779); details: 1 μM; Run 1, Run 2
STK22D/TSSK1 = STK22D/TSSK1 (Homo sapiens, UniProt Q9BXA7); details: 1 μM; Run 1, Run 2
MEK5 = MEK5 (Homo sapiens, UniProt Q13163); details: 1 μM; Run 1, Run 2
CDK16/cyclin Y (PCTAIRE) = CDK16/cyclin Y (PCTAIRE) (Homo sapiens, UniProt Q00536); details: 1 μM; Run 1, Run 2
NEK5 [2] = biological target: T1, NEK5; assay: biochemical; details: read-out: % enzyme activity, 1 μM; Run 1, Run 2
ALK = ALK (Homo sapiens, UniProt Q9UM73); details: 1 μM; Run 1, Run 2
MST1/STK4 = MST1/STK4 (Homo sapiens, UniProt Q13043); assay: biochemical; details: read-out: % enzyme activity, 1 μM; Run 1, Run 2
CK1g1 = CK1g1 (Homo sapiens, UniProt Q9HCP0); assay: biochemical; details: read-out: % enzyme activity, 1 μM; Run 1, Run 2
PDGFRb = PDGFRb (Homo sapiens, UniProt P09619); assay: biochemical; details: read-out: % enzyme activity, 1 μM; Run 1, Run 2
MLK2/MAP3K10 = MLK2/MAP3K10 (Homo sapiens, UniProt Q02779); assay: biochemical; details: read-out: % enzyme activity, 1 μM; Run 1, Run 2
IKKe/IKBKE = IKKe/IKBKE (Homo sapiens, UniProt Q14164); details: 1 μM; Run 1, Run 2
RSK4 = RSK4 (Homo sapiens, UniProt Q9UK32); details: 1 μM; Run 1, Run 2
IRAK1 = IRAK1 (Homo sapiens, UniProt P51617); details: 1 μM; Run 1, Run 2
PDGFRa = PDGFRa (Homo sapiens, UniProt P16234); details: 1 μM; Run 1, Run 2
MYLK4 = MYLK4 (Homo sapiens, UniProt Q86YV6); assay: biochemical; details: read-out: % enzyme activity, 1 μM; Run 1, Run 2
TBK1 = TBK1 (Homo sapiens, UniProt Q9UHD2); details: 1 μM; Run 1, Run 2
CDK7/cyclin H = CDK7/cyclin H (Homo sapiens, UniProt P50613); assay: biochemical; details: read-out: % enzyme activity, 1 μM; Run 1, Run 2
GCK/MAP4K2 = GCK/MAP4K2 (Homo sapiens, UniProt Q12851); details: 1 μM; Run 1, Run 2
TYK2 = TYK2 (Homo sapiens, UniProt P29597); assay: biochemical; details: read-out: % enzyme activity, 1 μM; Run 1, Run 2
SBK1 = SBK1 (Homo sapiens, UniProt Q52WX2); assay: biochemical; details: read-out: % enzyme activity, 1 μM; Run 1, Run 2
DYRK4 = DYRK4 (Homo sapiens, UniProt Q9NR20); details: 1 μM; Run 1, Run 2
EPHA5 = EPHA5 (Homo sapiens, UniProt P54756); details: 1 μM; Run 1, Run 2
MYO3A = MYO3A (Homo sapiens, UniProt Q8NEV4); assay: biochemical; details: read-out: % enzyme activity, 1 μM; Run 1, Run 2
RSK1 = RSK1 (Homo sapiens, UniProt Q15418); details: 1 μM; Run 1, Run 2

Compound: COc1cc(-c2cncc(-c3ccc(N4CCN(C(C)C)CC4)cc3)c2C)cc(F)c1C(N)=O [Compound 26b, 2-Fluoro-4-(5-(4-(4-isopropylpiperazin-1-yl)phenyl)-4-methylpyridin-3-yl)-6-methoxybenzamide]
- % enzyme activity (PKG1a): 103.73%
- % enzyme activity (JNK1): 83.52%
- % enzyme activity (ARK5/NUAK1): 92.31%
- % enzyme activity (NEK5 [1]): 96.39%
- remaining activity at 1 µM (SLK/STK2): 106%
- remaining activity at 1 µM (MST3/STK24): 113%
- % enzyme activity (CAMK2g): 96.27%
- % enzyme activity (MEKK2): 82.92%
- remaining activity at 1 µM (CDK2/cyclin E): 106%
- % enzyme activity (PHKg1): 92.81%
- remaining activity at 1 µM (CDK14/cyclin Y (PFTK1)): 97.8%
- remaining activity at 1 µM (MASTL): 94.9%
- % enzyme activity (SRMS): 97.08%
- remaining activity at 1 µM (PKCd): 93.4%
- % enzyme activity (PKD2/PRKD2): 102.86%
- remaining activity at 1 µM (AKT2): 94%
- remaining activity at 1 µM (CDK3/cyclin E): 85.8%
- remaining activity at 1 µM (RSK3): 101%
- remaining activity at 1 µM (CDK19/cyclin C): 82.4%
- % enzyme activity (JNK3): 95.11%
- % enzyme activity (STK22D/TSSK1): 99.56%
- % enzyme activity (MEK5): 93.44%
- % enzyme activity (CDK16/cyclin Y (PCTAIRE)): 93.46%
- remaining activity at 1 µM (NEK5 [2]): 106%
- % enzyme activity (ALK): 102.24%
- remaining activity at 1 µM (MST1/STK4): 100%
- remaining activity at 1 µM (CK1g1): 61.1%
- remaining activity at 1 µM (PDGFRb): 90.1%
- remaining activity at 1 µM (MLK2/MAP3K10): 115%
- % enzyme activity (IKKe/IKBKE): 82.11%
- % enzyme activity (RSK4): 94.31%
- % enzyme activity (IRAK1): 100.16%
- % enzyme activity (PDGFRa): 79.03%
- remaining activity at 1 µM (MYLK4): 95.9%
- % enzyme activity (TBK1): 83.46%
- remaining activity at 1 µM (CDK7/cyclin H): 103%
- % enzyme activity (GCK/MAP4K2): 67.48%
- remaining activity at 1 µM (TYK2): 103%
- remaining activity at 1 µM (SBK1): 96.3%
- % enzyme activity (DYRK4): 96.54%
- % enzyme activity (EPHA5): 94.61%
- remaining activity at 1 µM (MYO3A): 99.4%
- % enzyme activity (RSK1): 95.84%
